In the supplement of paper PMC12889115:
This is one part of the list. These are raw signals, not scaled to a control.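 In the initial screen, polymyxin B was used at a concentration that permeabilizes Salmonella's outer membrane but not its inner membrane. Maximum growth was set by DMSO wells with or without polymyxin B. Since plates varied, data were ranked per plate, and compounds giving the lowest OD600 advanced as hits.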

Tested on: Salmonella enterica serovar Typhimurium SL1344
Test: bacterial growth OD600 after 18 h with compound and polymyxin B; higher = more bacterial growth (less inhibition)
Details: 50 µM, Mueller-Hinton broth

| SMILES | bacterial growth OD600 (polymyxin B 1 µg/mL) | bacterial growth OD600 (polymyxin B 0.75 µg/mL) |
| --- | --- | --- |
| O=C(Cn1cccn1)NC1CC(=O)N(Cc2ccccc2C(F)(F)F)C1 (configuration not stated) | 0.976 | – |
| CC1(COc2ccc(-c3nc(COc4ccccc4)no3)cn2)CCCNC1 (configuration not stated) | 0.518 | – |
| Cc1ccc(C)c(-c2n[nH]cc2CN2CCCC(CO)(Cc3ccc(F)cc3)C2)c1 (configuration not stated) | 1.11 | – |
| CC(=O)N[C@@H](C)C(=O)N1CCc2onc(-c3ccc(F)c(F)c3)c2C1 | – | 0.832 |
| COc1cccc(OCc2nc(C(=O)NCC(C)C)co2)c1 | 0.895 | – |
| CCOC(=O)C1(Cc2ccccc2F)CCCN(C(=O)c2cccc(C(=O)OC)c2)C1 (configuration not stated) | 0.774 | – |
| COc1cccc(CN2CCCC(NC(=O)c3ccc4[nH]ccc4c3)C2)c1 (configuration not stated) | – | 0.69 |
| Cc1ccc2[nH]c(C3CCN(C(=O)C4CCC(=O)N(C5CC5)C4)CC3)nc2c1 (configuration not stated) | 0.924 | – |
| CC1=C(C(=O)N2CCC(CCC(=O)Nc3ccc4c(c3)OCCO4)CC2)OCCO1 | 1.18 | – |
| COc1ccc(CCN2C(=O)O[C@@H]3CN(c4ccnc(SC)n4)C[C@@H]32)cc1 | – | 0.816 |
| CCN1CC(CN(C)Cc2cn(Cc3ccccc3)nc2-c2cc3ccccc3o2)CC1=O (configuration not stated) | 0.009 | – |
| OCC1(Cc2ccccc2)CCCN(Cc2c[nH]nc2-c2cccc(F)c2)C1 (configuration not stated) | 1.06 | – |
| COc1cc(CN2CCSCC2)ccc1OCC(O)CN(C)C1CCCCC1 (configuration not stated) | 1.21 | – |
| CSCCC(=O)NC1CC(=O)N(Cc2cccc3ccccc23)C1 (configuration not stated) | 0.911 | – |
| COc1ccc(CC2(CCC(=O)N[C@@H](Cc3ccccc3)C(N)=O)CCC(=O)N2)c2ccccc12 (some centres not stated) | – | 0.971 |
| c1cncc(CNC2CCCc3nc(-c4cccnc4)ncc32)c1 (configuration not stated) | 0.925 | – |

Complete entries from above. Values in the order: bacterial growth OD600 (polymyxin B 1 µg/mL) | bacterial growth OD600 (polymyxin B 0.75 µg/mL)
COc1ccc(CCN2C(=O)O[C@@H]3CN(c4ccnc(SC)n4)C[C@@H]32)cc1 as listed: – | 0.816
O=C(Cn1cccn1)NC1CC(=O)N(Cc2ccccc2C(F)(F)F)C1 (configuration not stated) as listed: 0.976 | –

(further entries)

| SMILES | bacterial growth OD600 (polymyxin B 1 µg/mL) | bacterial growth OD600 (polymyxin B 0.75 µg/mL) |
| --- | --- | --- |
| O=C(C1CC12CCCC2)N1CCc2[nH]nc(-c3ccc4c(c3)OCO4)c2C1 (configuration not stated) | – | 0.001 |
| CCCNc1ccc(C(=O)NCc2nc(CC)cs2)cn1 | 1.23 | – |
| COc1ccc(-c2n[nH]cc2CN2CCC(Oc3cccnc3)CC2)c(OC)c1 | 0.767 | – |
| Cc1cccc(CN2CCCC(O)(CNCC(C)(C)C)C2=O)c1 (configuration not stated) | 0.923 | – |
| Cc1ccc2cc(CNCC3CCCCC3)c(N3CCC(O)CC3)nc2c1 | – | 0.803 |
| OCC#Cc1ccc(CN2CCC3(CCCN(Cc4ccccc4F)C3)C2)s1 (configuration not stated) | 0.02 | – |
| O=C(C1CCOCC1)N1CCc2onc(C(c3ccccc3)c3ccccc3)c2C1 | – | 0.305 |
| Cc1cc(CN(C)C(=O)c2ccc3nc(Cc4ccccc4F)oc3c2)n[nH]1 | 0.855 | – |
| CN(CCc1cnn(C)c1)C(=O)c1cc(NC(=O)c2ccccc2)cc2ncn(C3CCCC3)c12 | – | 0.745 |
| Cc1ccccc1CNC(=O)C1CCCN(C2CCN(C(=O)C3CC3)CC2)C1 (configuration not stated) | 0.885 | – |
| CN(Cc1ccncn1)C(=O)c1csc2nc(-c3ccc(C(F)(F)F)cc3)cn12 | 1.05 | – |
| CN(Cc1nc(-c2ccc(C(F)(F)F)cc2)no1)CC(O)c1ccccc1 (configuration not stated) | 0.764 | – |
| COc1cccc2ccc(CN3CCc4ccc(NC(=O)c5ccncc5)cc4C3)nc12 | – | 0.782 |
| C=C(C)CN(CC)C(=O)C1CCC(=O)N(C2CCCC2)C1 (configuration not stated) | 0.958 | – |
| CCn1cc(CNC(C)c2cnc(N(C)C3CCCCC3)nc2C)cn1 (configuration not stated) | – | 0.75 |
| CC(C)Cc1cc(CN2CCCC(CO)(CCc3ccccc3)C2)n[nH]1 (configuration not stated) | – | 0.787 |
